Results on six compounds are retold here after PubChem BioAssay AID330 (DTP/NCI, 2004).

The list is a part of this screen's results and no random one: it is rich in T/C values a quarter to a half above the control, in often repeated tests (any T/C) and in doses without a T/C. Further doses and runs are listed elsewhere. T/C: endpoint of the treated group in % of that of the vehicle group. Some doses have a count of surviving animals in place of a T/C: the source files T/C as zero there, which appears to mark a toxic dose or a test without result, not a measured value. Some survivor counts are full or nearly so, which does not show that the dose was tolerated: survival well below the control is almost never listed, so the zero probably covers shortened survival too. Survivors were counted at the toxicity check, usually on the fifth day, unless a day is given; later deaths do not show. Schedule codes are those of the source, read here as Q, the interval in days (D) or hours (H), X, the number of doses.

The experiment concerns P388 leukemia ip, CD2F1 mice, survival T/C. Put plainly: NCI In Vivo Anticancer Drug Screen. Data for tumor model P388 Leukemia (intraperitoneal) in CD2F1 (CDF1) mice. Particulars: T/C endpoint: median survival time, higher T/C = longer survival.

With `CO[Si](CCCN)(OC)OC`, the survivor count (dose: 400.0 mg/kg/injection, schedule: Q01DX009 (ip), vehicle: saline) was 0 of 6.
Regarding `CCOC(=O)c1ccc(N2C(C(=O)OCC)Nc3ccc(C(=O)OCC)cc3C2C(=O)OCC)cc1` (stereo not given), the survivor count (dose: 400.0 mg/kg/injection, schedule: Q04DX002 (ip), vehicle: Klucel (hydroxypropylcellulose) (HPC)) is reported as 6 of 6.
`COc1cc2c(cc1OC)C1CC(CC3CCCCN31)OC(=O)/C=C\c1ccc(O)c-2c1` (stereo not given): the survivor count (dose: 200.0 mg/kg/injection, schedule: Q04DX003 (ip), vehicle: saline) was 5 of 6 and the survivor count (dose: 400.0 mg/kg/injection, schedule: Q04DX003 (ip), vehicle: saline) was 3 of 6.
For the compound `CN(C)c1nc(N)nc(Nc2ccc(Br)cc2)c1N=O`, the survivor count is reported as 6 of 6 (dose: 100.0 mg/kg/injection, schedule: Q01DX009 (ip), vehicle: saline with Tween-80); 6 of 6 (dose: 200.0 mg/kg/injection, schedule: Q01DX009 (ip), vehicle: saline with Tween-80); 0 of 6 (dose: 400.0 mg/kg/injection, schedule: Q01DX009 (ip), vehicle: saline with Tween-80).
On to `CCN(CC)C(=O)NCCCCCCNC(=O)N(CC)CC`, for which the survivor count runs as follows: (dose: 120.0 mg/kg/injection, schedule: Q01DX005 (ip), vehicle: saline with Tween-80) 6 of 6; (dose: 240.0 mg/kg/injection, schedule: Q01DX005 (ip), vehicle: saline with Tween-80) 6 of 6.
Turning to `c1ccc2c(c1)[nH]c1c2nc2ncccn21`, the survivor count (dose: 200.0 mg/kg/injection, schedule: Q01DX005 (ip), vehicle: Klucel (hydroxypropylcellulose) (HPC)) is 0 of 6.
